Assay results reported in the supplement of paper PMC10849652.
The other results are listed elsewhere or left out.

Chains of the proteins cited; added tags and fusions are not shown. Lines headed by an entry give the natural chain unless they say otherwise; changes in a name come on top.
UniProt Q9NVC6: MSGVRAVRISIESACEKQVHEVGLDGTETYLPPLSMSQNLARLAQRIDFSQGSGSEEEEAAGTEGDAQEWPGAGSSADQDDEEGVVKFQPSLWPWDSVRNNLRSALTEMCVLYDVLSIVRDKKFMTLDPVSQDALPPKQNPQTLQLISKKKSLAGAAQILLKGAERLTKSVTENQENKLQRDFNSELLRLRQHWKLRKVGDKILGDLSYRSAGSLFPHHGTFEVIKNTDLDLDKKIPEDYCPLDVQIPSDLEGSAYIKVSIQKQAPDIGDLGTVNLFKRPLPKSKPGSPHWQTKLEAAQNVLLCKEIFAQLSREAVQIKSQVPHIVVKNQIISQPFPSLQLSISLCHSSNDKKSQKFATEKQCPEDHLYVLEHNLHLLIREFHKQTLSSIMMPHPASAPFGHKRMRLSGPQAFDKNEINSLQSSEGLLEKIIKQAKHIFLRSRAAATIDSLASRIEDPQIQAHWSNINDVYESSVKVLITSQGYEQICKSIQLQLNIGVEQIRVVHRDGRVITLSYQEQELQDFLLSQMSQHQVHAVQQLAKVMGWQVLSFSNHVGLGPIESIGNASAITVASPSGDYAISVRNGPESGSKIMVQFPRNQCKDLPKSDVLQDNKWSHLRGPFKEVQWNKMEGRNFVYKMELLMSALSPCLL
UniProt Q06413, whole entry, looked up: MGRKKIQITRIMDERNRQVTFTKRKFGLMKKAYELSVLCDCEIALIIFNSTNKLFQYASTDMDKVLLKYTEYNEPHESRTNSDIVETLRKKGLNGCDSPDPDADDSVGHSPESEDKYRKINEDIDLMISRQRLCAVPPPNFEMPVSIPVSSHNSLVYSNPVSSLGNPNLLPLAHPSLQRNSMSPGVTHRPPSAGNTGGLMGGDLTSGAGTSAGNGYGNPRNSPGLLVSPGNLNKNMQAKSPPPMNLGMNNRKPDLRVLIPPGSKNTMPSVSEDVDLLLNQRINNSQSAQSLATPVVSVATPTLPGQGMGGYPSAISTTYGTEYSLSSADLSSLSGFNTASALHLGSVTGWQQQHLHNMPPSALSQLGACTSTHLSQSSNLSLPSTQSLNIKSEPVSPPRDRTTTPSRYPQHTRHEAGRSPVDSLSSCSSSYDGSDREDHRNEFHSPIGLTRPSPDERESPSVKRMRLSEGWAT
UniProt Q86XN8: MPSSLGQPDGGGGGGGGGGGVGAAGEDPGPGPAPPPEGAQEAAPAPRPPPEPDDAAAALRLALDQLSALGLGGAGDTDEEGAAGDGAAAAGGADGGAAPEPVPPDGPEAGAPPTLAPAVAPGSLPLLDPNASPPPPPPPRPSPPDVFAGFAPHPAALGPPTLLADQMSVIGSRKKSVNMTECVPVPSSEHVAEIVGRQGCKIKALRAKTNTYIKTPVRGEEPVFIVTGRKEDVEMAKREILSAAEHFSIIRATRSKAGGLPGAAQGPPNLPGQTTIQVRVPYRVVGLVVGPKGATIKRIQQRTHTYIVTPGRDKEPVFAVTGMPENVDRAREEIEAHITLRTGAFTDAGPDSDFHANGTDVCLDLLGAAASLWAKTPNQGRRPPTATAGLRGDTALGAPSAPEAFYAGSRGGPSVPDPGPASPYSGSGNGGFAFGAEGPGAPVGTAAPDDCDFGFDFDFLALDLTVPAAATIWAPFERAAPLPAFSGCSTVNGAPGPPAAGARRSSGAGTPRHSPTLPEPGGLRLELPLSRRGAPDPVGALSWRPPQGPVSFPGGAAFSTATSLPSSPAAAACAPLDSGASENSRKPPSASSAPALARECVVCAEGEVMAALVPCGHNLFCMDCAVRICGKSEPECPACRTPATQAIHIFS
UniProt O95140: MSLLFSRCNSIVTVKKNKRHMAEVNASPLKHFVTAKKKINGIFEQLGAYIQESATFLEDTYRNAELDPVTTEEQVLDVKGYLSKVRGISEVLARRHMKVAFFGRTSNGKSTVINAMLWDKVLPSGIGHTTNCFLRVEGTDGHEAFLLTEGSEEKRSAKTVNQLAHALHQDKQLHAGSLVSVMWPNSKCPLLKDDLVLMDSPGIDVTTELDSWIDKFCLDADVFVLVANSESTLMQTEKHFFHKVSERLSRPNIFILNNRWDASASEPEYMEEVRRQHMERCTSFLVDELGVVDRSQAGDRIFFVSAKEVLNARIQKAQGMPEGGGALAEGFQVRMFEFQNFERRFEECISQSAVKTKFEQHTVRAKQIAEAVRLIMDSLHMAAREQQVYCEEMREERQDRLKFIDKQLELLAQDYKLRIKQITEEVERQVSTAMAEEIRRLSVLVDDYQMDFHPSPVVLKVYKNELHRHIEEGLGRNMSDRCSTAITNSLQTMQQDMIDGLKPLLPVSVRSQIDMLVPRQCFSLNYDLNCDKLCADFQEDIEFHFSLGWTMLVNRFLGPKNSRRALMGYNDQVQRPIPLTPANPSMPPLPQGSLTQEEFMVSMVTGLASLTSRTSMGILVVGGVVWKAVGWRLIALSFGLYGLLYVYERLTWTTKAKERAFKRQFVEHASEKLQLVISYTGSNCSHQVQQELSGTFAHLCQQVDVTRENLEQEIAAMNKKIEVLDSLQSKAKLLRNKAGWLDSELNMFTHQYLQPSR
UniProt Q6P2C8: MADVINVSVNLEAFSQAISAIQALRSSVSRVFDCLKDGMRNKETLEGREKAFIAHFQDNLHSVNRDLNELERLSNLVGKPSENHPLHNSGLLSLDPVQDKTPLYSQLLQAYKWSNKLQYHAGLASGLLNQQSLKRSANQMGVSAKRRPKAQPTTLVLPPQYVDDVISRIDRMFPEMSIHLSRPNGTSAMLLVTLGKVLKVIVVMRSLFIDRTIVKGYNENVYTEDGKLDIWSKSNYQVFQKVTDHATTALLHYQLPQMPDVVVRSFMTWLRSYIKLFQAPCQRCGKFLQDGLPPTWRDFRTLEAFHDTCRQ
UniProt Q15648, whole entry, looked up: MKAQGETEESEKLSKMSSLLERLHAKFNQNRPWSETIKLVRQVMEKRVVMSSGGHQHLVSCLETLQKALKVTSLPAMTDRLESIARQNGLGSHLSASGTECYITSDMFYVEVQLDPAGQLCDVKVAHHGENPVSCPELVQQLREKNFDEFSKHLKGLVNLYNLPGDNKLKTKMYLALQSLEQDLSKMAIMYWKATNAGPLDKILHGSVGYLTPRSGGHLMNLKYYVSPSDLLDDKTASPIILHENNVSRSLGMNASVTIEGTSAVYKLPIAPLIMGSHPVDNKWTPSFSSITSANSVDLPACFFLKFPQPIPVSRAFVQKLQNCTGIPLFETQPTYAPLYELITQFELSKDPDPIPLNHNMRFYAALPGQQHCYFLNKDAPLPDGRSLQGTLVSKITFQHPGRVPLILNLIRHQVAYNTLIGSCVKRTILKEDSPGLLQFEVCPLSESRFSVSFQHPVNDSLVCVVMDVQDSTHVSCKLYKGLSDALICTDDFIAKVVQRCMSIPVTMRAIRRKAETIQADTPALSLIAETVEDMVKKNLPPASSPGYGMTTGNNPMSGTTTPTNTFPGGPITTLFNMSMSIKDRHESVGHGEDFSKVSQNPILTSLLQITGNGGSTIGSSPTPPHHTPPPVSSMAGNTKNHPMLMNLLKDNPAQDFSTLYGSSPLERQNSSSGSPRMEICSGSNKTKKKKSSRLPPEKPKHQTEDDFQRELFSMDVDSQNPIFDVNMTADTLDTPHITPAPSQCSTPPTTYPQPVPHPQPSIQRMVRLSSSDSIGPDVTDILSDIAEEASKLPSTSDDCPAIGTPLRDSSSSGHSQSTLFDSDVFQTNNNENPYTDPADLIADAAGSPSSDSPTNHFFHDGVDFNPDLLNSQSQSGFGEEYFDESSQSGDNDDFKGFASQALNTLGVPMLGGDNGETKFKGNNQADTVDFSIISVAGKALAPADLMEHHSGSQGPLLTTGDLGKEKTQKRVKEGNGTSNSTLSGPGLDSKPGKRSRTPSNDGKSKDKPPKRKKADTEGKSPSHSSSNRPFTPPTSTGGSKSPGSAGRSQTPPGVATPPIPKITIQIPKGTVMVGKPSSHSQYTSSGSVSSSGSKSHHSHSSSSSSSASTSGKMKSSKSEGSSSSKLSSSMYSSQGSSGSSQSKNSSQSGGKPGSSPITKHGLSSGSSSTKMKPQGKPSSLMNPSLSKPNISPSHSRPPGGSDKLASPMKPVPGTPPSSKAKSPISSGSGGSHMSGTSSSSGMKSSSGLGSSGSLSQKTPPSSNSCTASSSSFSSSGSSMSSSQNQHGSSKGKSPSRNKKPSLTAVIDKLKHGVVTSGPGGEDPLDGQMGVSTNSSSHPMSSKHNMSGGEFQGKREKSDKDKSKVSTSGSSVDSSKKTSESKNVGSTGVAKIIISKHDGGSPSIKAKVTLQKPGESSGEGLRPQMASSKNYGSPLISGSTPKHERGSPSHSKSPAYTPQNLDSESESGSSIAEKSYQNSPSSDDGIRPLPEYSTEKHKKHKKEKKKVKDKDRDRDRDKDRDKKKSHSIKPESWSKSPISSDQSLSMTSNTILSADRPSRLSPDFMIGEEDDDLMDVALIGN
UniProt Q9BUT9: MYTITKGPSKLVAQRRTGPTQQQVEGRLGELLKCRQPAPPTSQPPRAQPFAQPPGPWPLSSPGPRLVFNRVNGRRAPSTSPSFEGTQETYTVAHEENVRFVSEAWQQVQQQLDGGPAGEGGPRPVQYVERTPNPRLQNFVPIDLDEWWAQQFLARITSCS
UniProt Q8NE86: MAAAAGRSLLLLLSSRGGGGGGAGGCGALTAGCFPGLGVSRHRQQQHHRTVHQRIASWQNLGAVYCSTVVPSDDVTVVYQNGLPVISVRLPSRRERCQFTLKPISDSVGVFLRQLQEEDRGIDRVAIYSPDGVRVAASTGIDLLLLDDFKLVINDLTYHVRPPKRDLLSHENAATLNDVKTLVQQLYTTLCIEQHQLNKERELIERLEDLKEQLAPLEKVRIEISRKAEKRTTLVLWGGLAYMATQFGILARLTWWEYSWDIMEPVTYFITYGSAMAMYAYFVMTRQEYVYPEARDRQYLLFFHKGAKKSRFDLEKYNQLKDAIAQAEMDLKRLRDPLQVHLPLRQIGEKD
UniProt Q7Z434: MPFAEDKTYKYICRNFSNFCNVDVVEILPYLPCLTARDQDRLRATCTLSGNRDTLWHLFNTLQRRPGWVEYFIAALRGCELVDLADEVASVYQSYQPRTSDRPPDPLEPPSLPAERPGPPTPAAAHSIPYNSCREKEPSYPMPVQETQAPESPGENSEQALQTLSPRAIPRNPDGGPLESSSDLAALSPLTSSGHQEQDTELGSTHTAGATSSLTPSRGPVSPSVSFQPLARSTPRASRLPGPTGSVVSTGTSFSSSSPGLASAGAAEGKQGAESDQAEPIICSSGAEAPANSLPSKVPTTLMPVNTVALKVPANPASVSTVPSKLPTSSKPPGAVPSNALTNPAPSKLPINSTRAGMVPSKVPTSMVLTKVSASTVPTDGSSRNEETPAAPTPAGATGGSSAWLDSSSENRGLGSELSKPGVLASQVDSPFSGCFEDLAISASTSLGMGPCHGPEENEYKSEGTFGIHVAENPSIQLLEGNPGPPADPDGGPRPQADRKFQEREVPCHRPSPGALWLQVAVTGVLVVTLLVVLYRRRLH
UniProt O95568: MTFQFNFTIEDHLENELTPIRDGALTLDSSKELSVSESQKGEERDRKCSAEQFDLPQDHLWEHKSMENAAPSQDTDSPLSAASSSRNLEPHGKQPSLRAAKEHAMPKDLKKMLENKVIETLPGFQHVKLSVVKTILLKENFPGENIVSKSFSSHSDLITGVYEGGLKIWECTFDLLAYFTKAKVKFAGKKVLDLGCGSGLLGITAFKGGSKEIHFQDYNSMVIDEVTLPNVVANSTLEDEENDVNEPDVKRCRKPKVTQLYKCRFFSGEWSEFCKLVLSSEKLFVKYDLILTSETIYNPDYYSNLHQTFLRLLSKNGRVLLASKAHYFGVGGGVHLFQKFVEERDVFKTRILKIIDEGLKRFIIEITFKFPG
UniProt Q86V88: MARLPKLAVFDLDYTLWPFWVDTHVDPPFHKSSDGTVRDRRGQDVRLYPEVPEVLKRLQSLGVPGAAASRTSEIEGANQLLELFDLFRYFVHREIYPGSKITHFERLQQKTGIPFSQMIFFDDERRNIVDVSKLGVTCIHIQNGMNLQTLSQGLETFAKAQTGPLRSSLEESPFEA
UniProt Q96G25: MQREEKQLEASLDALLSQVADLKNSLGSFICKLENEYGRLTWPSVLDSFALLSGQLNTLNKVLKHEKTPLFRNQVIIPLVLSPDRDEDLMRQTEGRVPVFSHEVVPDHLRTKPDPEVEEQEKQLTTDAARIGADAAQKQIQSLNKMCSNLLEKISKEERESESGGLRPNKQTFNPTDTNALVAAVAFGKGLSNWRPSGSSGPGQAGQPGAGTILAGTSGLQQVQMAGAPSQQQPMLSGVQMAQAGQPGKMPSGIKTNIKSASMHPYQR

Experiments:
Test in all cases: log2 fold change, soluble protein after heating vs DMSO (PISA); higher = thermal stabilisation; K562 lysate, 10 uM; active = over 0.2 and 3.5 SD of the protein, either way, in both replicates (recomputed)
ibrutinib = compound: C=CC(=O)N1CCC[C@@H](n2nc(-c3ccc(Oc4ccccc4)cc3)c3c(N)ncnc32)C1 [ibrutinib]
In short: (§1)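 The values are log-two fold changes in thermal stability compared with solvent controls and come from duplicates. They were obtained by TMTpro 16plex LC-MS/MS, with channel sums equalised, on the supernatant after 21,000xg for 90 min. That supernatant came from crude K562 extract at 1 mg/mL protein treated with 10 μM compound for 30 min, heated for 3 min across 48°C-58°C, pooled and brought to 0.5% NP-40 at 4°C.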

[1] = compound: CC(=O)c1cnc2ccc(-c3cc(Cl)c(O)c(Cl)c3)nc2c1N[C@H]1CC[C@H](CN(C)C)CC1
In short: as §1

ralimetinib = compound: CC(C)(C)Cn1c(N)nc2ccc(-c3[nH]c(C(C)(C)C)nc3-c3ccc(F)cc3)nc21 [ralimetinib]
In short: as §1

[2] = compound: CC(C)(O)CC(=O)NCCn1ccc2ncnc(Nc3ccc(Oc4cccc(C(F)(F)F)c4)c(Cl)c3)c21
In short: as §1

[3] = compound: CC(C)C1=C2N=C(C=C(N2N=C1)NCC3=CC=CC=C3)NCCCCCCN
In short: as §1

[4] = compound: CC1=C(C(CC(=O)N1)C2=CC=C(C=C2)C(F)(F)F)C(=O)NC3=C(C=C4C(=C3)C=NN4)F
In short: as §1

[5] = compound: CC1=C(C2=C(C=C1)C(=O)C3=CC=CC=C3N2CCCN)C
In short: as §1

[6] = compound: CC1=C(C=C(C=C1)NC(=O)C2=CC(=CC=C2)C(C)(C)C#N)NC3=CC4=C(C=C3)N=CN(C4=O)C
In short: as §1

[7] = compound: CC1=C(C=C(C=C1)NC(=O)C2=CC(=CC=C2)N(C)C)NC(=O)C3=CC=C(C=C3)O
In short: as §1

[8] = compound: CC1=CC=C(C=C1)SC2=C3C=C(SC3=CN=C2)C(=O)N
In short: as §1

vemurafenib = compound: CCCS(=O)(=O)Nc1ccc(F)c(C(=O)c2c[nH]c3ncc(-c4ccc(Cl)cc4)cc23)c1F [vemurafenib]
In short: as §1

[9] = compound: CCCS(=O)(=O)Nc1ccc(F)c(C(=O)c2c[nH]c3ncc(Cl)cc23)c1F
In short: as §1

barasertib = compound: CCN(CCCOc1ccc2c(Nc3cc(CC(=O)Nc4cccc(F)c4)[nH]n3)ncnc2c1)CCOP(=O)(O)O [barasertib]
In short: as §1

[10] = compound: CC[C@@H]1C(=O)N(C)c2cnc(Nc3ccc(C(=O)NC4CCN(C)CC4)cc3OC)nc2N1C1CCCC1
In short: as §1

volasertib = compound: CC[C@@H]1C(=O)N(C)c2cnc(Nc3ccc(C(=O)N[C@H]4CC[C@H](N5CCN(CC6CC6)CC5)CC4)cc3OC)nc2N1C(C)C [volasertib]
In short: as §1

[11] = compound: CCn1c(C(=O)N(C2CC2)C2CC2)cc2c3c(ncn3C)c(Nc3cc(C)n(C)n3)nc21
In short: as §1

[12] = compound: CCn1cc(-c2ccnc3[nH]c(-c4cccc(CN(C)C)c4)cc23)c(-c2ccc(NC(=O)N(C)C)cc2)n1
In short: as §1

[13] = compound: CN1CCC(CNc2ccc3ncc(-c4cccc(OC(F)(F)F)c4)n3n2)CC1
In short: as §1

saracatinib = compound: CN1CCN(CCOc2cc(OC3CCOCC3)c3c(Nc4c(Cl)ccc5c4OCO5)ncnc3c2)CC1 [saracatinib]
In short: as §1

sotrastaurin = compound: CN1CCN(c2nc(C3=C(c4c[nH]c5ccccc45)C(=O)NC3=O)c3ccccc3n2)CC1 [sotrastaurin]
In short: as §1

Measured: log2 fold change

MECP2 isoform 2 (UniProt P51608)
inactive: ibrutinib -0.025 | [1] 0.003 | ralimetinib 0.066 | [2] -0.016 | [3] 0.016 | [4] -0.053 | [5] 0.038 | [6] 0.036 | [7] -0.045 | [8] 0.022 | vemurafenib 0.04 | [9] 0.009 | barasertib -0.093 | [10] 0.051 | volasertib 0 | [11] -0.039 | [12] -0.333 | [13] 0.072 | saracatinib -0.07 | sotrastaurin 0.046

MED17 (UniProt Q9NVC6)
inactive: ibrutinib 0.018 | [1] 0.003 | ralimetinib 0 | [2] -0.003 | [3] -0.017 | [4] 0.04 | [5] 0.019 | [6] 0 | [7] 0.021 | [8] 0.001 | vemurafenib 0.028 | [9] 0.007 | barasertib 0.004 | [10] -0.023 | volasertib -0.02 | [11] 0.002 | [12] -0.037 | [13] 0.013 | saracatinib 0.01 | sotrastaurin 0.031

MEF2C isoform 5 (UniProt Q06413)
inactive: ibrutinib 0.026 | [1] -0.035 | ralimetinib -0.06 | [2] -0.013 | [3] -0.021 | [4] -0.057 | [5] -0.018 | [6] 0.071 | [7] 0.023 | [8] -0.046 | vemurafenib 0.05 | [9] 0.015 | barasertib 0.025 | [10] -0.013 | volasertib -0.044 | [11] -0.009 | [12] 0.011 | [13] -0.004 | saracatinib 0.008 | sotrastaurin -0.047

MEX3D isoform 3 (UniProt Q86XN8)
inactive: ibrutinib 0.005 | [1] 0.102 | ralimetinib -0.03 | [2] 0.085 | [3] 0.26 | [4] -0.024 | [5] 0.071 | [6] 0.024 | [7] -0.096 | [8] -0.109 | vemurafenib -0.239 | [9] 0.009 | barasertib 0.154 | [10] 0.003 | volasertib 0.029 | [11] 0.053 | [12] -0.031 | [13] 0.044 | saracatinib -0.146 | sotrastaurin -0.001

MEF2A (UniProt Q02078)
inactive: ibrutinib 0.055 | [1] 0.08 | ralimetinib -0.033 | [2] -0.048 | [3] 0.076 | [4] -0.07 | [5] 0.028 | [6] 0 | [7] 0.052 | [8] 0.012 | vemurafenib -0.017 | [9] 0.001 | barasertib -0.008 | [10] -0.083 | volasertib 0.045 | [11] 0.088 | [12] -0.17 | [13] 0.038 | saracatinib 0.041 | sotrastaurin -0.001

3 neighbouring records from above, for reference:
MECP2 isoform 2 (UniProt P51608)
inactive: ibrutinib -0.025 | [1] 0.003 | ralimetinib 0.066 | [2] -0.016 | [3] 0.016 | [4] -0.053 | [5] 0.038 | [6] 0.036 | [7] -0.045 | [8] 0.022 | vemurafenib 0.04 | [9] 0.009 | barasertib -0.093 | [10] 0.051 | volasertib 0 | [11] -0.039 | [12] -0.333 | [13] 0.072 | saracatinib -0.07 | sotrastaurin 0.046

MED17 (UniProt Q9NVC6)
inactive: ibrutinib 0.018 | [1] 0.003 | ralimetinib 0 | [2] -0.003 | [3] -0.017 | [4] 0.04 | [5] 0.019 | [6] 0 | [7] 0.021 | [8] 0.001 | vemurafenib 0.028 | [9] 0.007 | barasertib 0.004 | [10] -0.023 | volasertib -0.02 | [11] 0.002 | [12] -0.037 | [13] 0.013 | saracatinib 0.01 | sotrastaurin 0.031

MEF2C isoform 5 (UniProt Q06413)
inactive: ibrutinib 0.026 | [1] -0.035 | ralimetinib -0.06 | [2] -0.013 | [3] -0.021 | [4] -0.057 | [5] -0.018 | [6] 0.071 | [7] 0.023 | [8] -0.046 | vemurafenib 0.05 | [9] 0.015 | barasertib 0.025 | [10] -0.013 | volasertib -0.044 | [11] -0.009 | [12] 0.011 | [13] -0.004 | saracatinib 0.008 | sotrastaurin -0.047

Later entries:

MFN2 (UniProt O95140)
inactive: ibrutinib -0.035 | [1] -0.012 | ralimetinib 0.015 | [2] 0.034 | [3] -0.013 | [4] -0.007 | [5] 0.008 | [6] 0.02 | [7] 0.039 | [8] -0.013 | vemurafenib 0.035 | [9] -0.024 | barasertib 0.041 | [10] 0.038 | volasertib -0.033 | [11] 0.049 | [12] 0.013 | [13] -0.035 | saracatinib -0.01 | sotrastaurin 0.045

MED24 (UniProt O75448)
inactive: ibrutinib -0.007 | [1] 0.021 | ralimetinib 0.072 | [2] -0.017 | [3] -0.004 | [4] 0.05 | [5] 0.011 | [6] -0.014 | [7] 0.016 | [8] 0.011 | vemurafenib -0.004 | [9] 0.004 | barasertib 0.018 | [10] 0.027 | volasertib -0.054 | [11] 0 | [12] -0.052 | [13] 0.006 | saracatinib 0.031 | sotrastaurin 0.003

MED27 (UniProt Q6P2C8)
inactive: ibrutinib 0.025 | [1] -0.008 | ralimetinib 0.005 | [2] -0.039 | [3] 0.004 | [4] -0.14 | [5] 0.025 | [6] 0.017 | [7] 0.011 | [8] 0.003 | vemurafenib 0.003 | [9] 0.008 | barasertib -0.029 | [10] 0.015 | volasertib -0.047 | [11] -0.038 | [12] 0.043 | [13] 0.001 | saracatinib 0.06 | sotrastaurin 0.039

MED1 (UniProt Q15648)
inactive: ibrutinib 0.024 | [1] 0.013 | ralimetinib -0.031 | [2] -0.003 | [3] 0.005 | [4] -0.011 | [5] -0.011 | [6] -0.01 | [7] 0.018 | [8] 0.002 | vemurafenib 0.033 | [9] 0.031 | barasertib -0.003 | [10] 0.049 | volasertib -0.013 | [11] -0.016 | [12] 0.008 | [13] -0.032 | saracatinib 0.03 | sotrastaurin -0.026

MCRIP2 (UniProt Q9BUT9)
inactive: ibrutinib 0.124 | [1] 0.023 | ralimetinib 0.022 | [2] -0.035 | [3] -0.049 | [4] -0.087 | [5] 0.059 | [6] 0.039 | [7] -0.038 | [8] -0.049 | vemurafenib 0.069 | [9] -0.008 | barasertib -0.005 | [10] 0.119 | volasertib -0.013 | [11] -0.179 | [12] 0.062 | [13] -0.011 | saracatinib 0.125 | sotrastaurin -0.12

MCU (UniProt Q8NE86)
inactive: ibrutinib -0.05 | [1] 0.04 | ralimetinib 0.086 | [2] -0.021 | [3] -0.055 | [4] 0.014 | [5] 0.02 | [6] 0.034 | [7] 0.014 | [8] -0.023 | vemurafenib 0.011 | [9] 0.017 | barasertib 0.077 | [10] -0.085 | volasertib -0.033 | [11] -0.049 | [12] -0.062 | [13] -0.099 | saracatinib 0.04 | sotrastaurin 0.017

METTL3 (UniProt Q86U44)
inactive: ibrutinib 0.027 | [1] -0.015 | ralimetinib 0.022 | [2] -0.017 | [3] -0.01 | [4] -0.002 | [5] -0.021 | [6] 0.001 | [7] -0.032 | [8] -0.012 | vemurafenib 0.005 | [9] 0.014 | barasertib 0.007 | [10] 0.032 | volasertib -0.013 | [11] 0.007 | [12] -0.001 | [13] -0.021 | saracatinib 0.006 | sotrastaurin -0.023

MAVS (UniProt Q7Z434)
inactive: ibrutinib 0.087 | [1] 0.016 | ralimetinib 0.016 | [2] -0.05 | [3] 0.024 | [4] 0.055 | [5] -0.002 | [6] 0 | [7] 0.022 | [8] -0.001 | vemurafenib 0.026 | [9] 0.029 | barasertib 0.055 | [10] 0.043 | volasertib 0.005 | [11] -0.02 | [12] -0.096 | [13] 0.001 | saracatinib -0.01 | sotrastaurin 0.002

METTL18 (UniProt O95568)
inactive: ibrutinib -0.031 | [1] -0.002 | ralimetinib -0.001 | [2] 0.027 | [3] -0.009 | [4] 0.044 | [5] 0.016 | [6] 0.042 | [7] 0.001 | [8] -0.016 | vemurafenib 0.024 | [9] 0.065 | barasertib 0.155 | [10] -0.021 | volasertib -0.008 | [11] -0.013 | [12] -0.027 | [13] 0.036 | saracatinib -0.019 | sotrastaurin 0.04

MDP1 (UniProt Q86V88)
inactive: ibrutinib 0.073 | [1] -0.018 | ralimetinib -0.004 | [2] -0.05 | [3] -0.013 | [4] 0.008 | [5] -0.061 | [6] 0.048 | [7] -0.004 | [8] 0.01 | vemurafenib -0.021 | [9] -0.012 | barasertib -0.003 | [10] 0.015 | volasertib 0.058 | [11] -0.012 | [12] 0.18 | [13] -0.124 | saracatinib 0.003 | sotrastaurin 0.023

MED8 isoform 2 (UniProt Q96G25)
inactive: ibrutinib 0.109 | [1] 0.024 | ralimetinib 0.012 | [2] 0.036 | [3] 0.006 | [4] -0.03 | [5] -0.001 | [6] -0.005 | [7] -0.05 | [8] -0.058 | vemurafenib -0.022 | [9] 0.018 | barasertib 0.081 | [10] -0.051 | volasertib -0.003 | [11] 0.013 | [12] 0.214 | [13] -0.092 | saracatinib -0.002 | sotrastaurin 0.091
